Experimental data published in PMC4628070, “Independent Mechanisms Target SMCHD1 to Trimethylated Histone H3 Lysine 9-Modified Chromatin and the Inactive X Chromosome” (Molecular and Cellular Biology, 2015).
These are yes or no findings as the source states them, for the method shown. For some of these results: In cells and extracts the contact can be indirect. Some entries that bind do so weakly or less than the wild type.

Legend:
[1] = target: SMCHD1 E147A (FLAG- or HA-tagged, HEK293T) (mouse) (UniProt Q6P5D8); assay: co-IP; HEK293T cotransfected with C-terminally HA- and FLAG-tagged SMCHD1 or its derivatives; IP from nuclear extract (150 mM NaCl, 50 mM Tris pH 7.5, 0.05% NP-40, protein A magnetic beads, 4 h, 4°C), Western blot
[2] = target: SMCHD1 ΔHinge (FLAG- or HA-tagged, HEK293T) (mouse) (UniProt Q6P5D8); assay: as above
[3] = target: SMCHD1-FLAG (transfected into HEK293T cells) (mouse) (UniProt Q6P5D8); assay: as above
[4] = target: SMCHD1 hinge domain AAA mutant (residues 1616 to 1963, G1872A, G1875A, G1876A) (mouse) (UniProt Q6P5D8); assay: SEC; affinity-purified wild-type and mutant hinge domains on a Superdex 75 10/300 column, 0.5-ml fractions, A280 and Coomassie-stained SDS-PAGE; both purified

SMCHD1 E147A (FLAG- or HA-tagged, HEK293T) (from UniProt Q6P5D8 1-2007)
binding [1]: binds

SMCHD1 ΔHinge (FLAG- or HA-tagged, HEK293T) (from UniProt Q6P5D8 1-2007)
binding [2]: no binding

SMCHD1-FLAG (transfected into HEK293T cells) (from UniProt Q6P5D8 1-2007)
binding [3]: binds

B1: SMCHD1 hinge domain AAA mutant (residues 1616 to 1963, G1872A, G1875A, G1876A) (domain or fragment, UniProt Q6P5D8 1616-1963)
chain: NDVKKQQQMAALTKEKDELSKSITMYRSLFDANKQLVDEMKCQAEEAKLKETQLRNELKAYNIDIPATQQTTHIEALLEKKITEQNELKKRPRRLCTLPNYTKRSGDILGKIAHLAQIEDDRAAMVISWHLASDMDCVVTLTTDAARAIYDETQGRQQVLPLDSIYRKTLPDWKRPLPHFRNGKLHFKPFGNPVFARDLLTFPDNIEHCETVFGMLLGDTIILDNLDAANHYRKEVVKITHCPTLLTRDGDRIRSNAKFAALQNKAPPMDKLRGMVFGAPVPKQCVVLGKQIDLIQQYRTALYRLSSVNEDLDNQLQYLHTPDMKKKKQELDEQEKSLKRIEQKLGMT
binding [4]: no binding
